Experimental data from patent publication US20250195521A1 (Revolution Medicines, Inc., priority 2020, published 2025).
The source holds more than one record for some entries. This list holds those alone. An entry can have further records. Values that stand side by side differ for a reason that is not stated; they may come from other doses, times, organisms or constructs than stated.

Chains of the proteins cited; added tags and fusions are not shown. Lines headed by an entry give the natural chain unless they say otherwise; changes in a name come on top. A line that says so, or that is headed by a name, gives the form on record, which may keep a tag or linker. Residues count along the entry.
UniProt P01116, 1-164 with tags or gaps G12C limits assumed: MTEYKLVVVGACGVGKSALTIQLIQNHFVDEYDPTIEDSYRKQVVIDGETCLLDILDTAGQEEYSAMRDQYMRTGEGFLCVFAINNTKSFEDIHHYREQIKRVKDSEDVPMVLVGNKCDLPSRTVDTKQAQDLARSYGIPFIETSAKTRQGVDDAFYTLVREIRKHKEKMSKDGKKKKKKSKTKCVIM
UniProt P62937, whole entry, stated change not applied: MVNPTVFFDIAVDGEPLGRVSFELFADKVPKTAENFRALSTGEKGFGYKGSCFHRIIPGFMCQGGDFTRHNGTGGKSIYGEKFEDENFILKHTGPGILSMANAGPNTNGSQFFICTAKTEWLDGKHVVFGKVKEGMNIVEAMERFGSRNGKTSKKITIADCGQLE

Target: K-Ras G12C(GMP-PNP) binding to BRAF RBD (Homo sapiens (Human), UniProt P01116+P62937, G12C)
Assay: Disruption of BRAF RBD interaction with K-Ras (FRET / MOA assay), K-Ras G12C
Format: biochemical
Conditions: read-out: KRAS G12C FRET IC50

C=CC(=O)N1CC[C@H](C(=O)N(C)[C@H](C(=O)N[C@H]2Cc3cc(O)cc(c3)-c3ccc4c(c3)c(c(-c3cccnc3[C@H](C)OC)n4CC)CC(C)(C)COC(=O)[C@@H]3CCCN(N3)C2=O)C(C)C)C1
IC50: 100 nM to 1 µM and < 10 nM
